From patent US20130338130A1 (priority 2009, published 2013)
Where “and” joins values, the source holds several entries; their conditions need not be identical. Equal values may be shown once. Read-outs that look alike come from different tables or passages of the source. This continues a long series; more values of the same kind are listed elsewhere.

Test system: ATCC strain 43300 Staphylococcus aureus

CS(C)(=O)=O [MSM, Methylsulfonylmethane]
survival (cfu/ml) (12 μg/ml oxacillin (re-added every 24 hours) + MSM (% in label), 24 hours, three columns = triplicate platings, inoculum 3.3×10^5/ml, listed as 5% MSM): 8.4 × 10^3 cfu/ml and 8.0 × 10^3 cfu/ml | survival (cfu/ml) (12 μg/ml oxacillin (re-added every 24 hours) + MSM (% in label), 24 hours, three columns = triplicate platings, inoculum 3.3×10^5/ml, listed as 6% MSM): 8.6 × 10^3 cfu/ml and 8.5 × 10^3 cfu/ml and 8.0 × 10^3 cfu/ml | survival (cfu/ml) (12 μg/ml oxacillin (re-added every 24 hours) + MSM (% in label), 24 hours, three columns = triplicate platings, inoculum 3.3×10^5/ml, listed as 7% MSM): 8.2 × 10^3 cfu/ml and 8.5 × 10^3 cfu/ml and 8.3 × 10^3 cfu/ml | survival (cfu/ml) (12 μg/ml oxacillin (re-added every 24 hours) + MSM (% in label), 24 hours, three columns = triplicate platings, inoculum 3.3×10^5/ml, listed as 8% MSM): 6.6 × 10^3 cfu/ml and 6.9 × 10^3 cfu/ml | survival (cfu/ml) (12 μg/ml oxacillin (re-added every 24 hours) + MSM (% in label), 24 hours, three columns = triplicate platings, inoculum 3.3×10^5/ml, listed as 9% MSM): 5.6 × 10^3 cfu/ml and 5.2 × 10^3 cfu/ml and 5.0 × 10^3 cfu/ml | survival (cfu/ml) (12 μg/ml oxacillin (re-added every 24 hours) + MSM (% in label), 24 hours, three columns = triplicate platings, inoculum 3.3×10^5/ml, listed as 10% MSM): 5.8 × 10^3 cfu/ml and 5.6 × 10^3 cfu/ml and 6.0 × 10^3 cfu/ml | survival (cfu/ml) (12 μg/ml oxacillin (re-added every 24 hours) + MSM (% in label), 24 hours, three columns = triplicate platings, inoculum 3.3×10^5/ml, listed as 11% MSM): 8.2 × 10^3 cfu/ml and 8.5 × 10^3 cfu/ml and 8.0 × 10^3 cfu/ml | survival (cfu/ml) (12 μg/ml oxacillin (re-added every 24 hours) + MSM (% in label), 24 hours, three columns = triplicate platings, inoculum 3.3×10^5/ml, listed as 12% MSM): 7.0 × 10^3 cfu/ml and 7.3 × 10^3 cfu/ml | survival (cfu/ml) (12 μg/ml oxacillin (re-added every 24 hours) + MSM (% in label), 24 hours, three columns = triplicate platings, inoculum 3.3×10^5/ml, listed as 13% MSM): 9.0 × 10^3 cfu/ml and 8.7 × 10^3 cfu/ml and 9.2 × 10^3 cfu/ml | survival (cfu/ml) (12 μg/ml oxacillin (re-added every 24 hours) + MSM (% in label), 24 hours, three columns = triplicate platings, inoculum 3.3×10^5/ml, listed as 14% MSM): 1.00 × 10^4 cfu/ml and 1.02 × 10^4 cfu/ml and 1.01 × 10^4 cfu/ml | survival (cfu/ml) (12 μg/ml oxacillin (re-added every 24 hours) + MSM (% in label), 24 hours, three columns = triplicate platings, inoculum 3.3×10^5/ml, listed as 15% MSM): 1.29 × 10^4 cfu/ml | survival (cfu/ml) (12 μg/ml oxacillin + MSM (% in label), 48 hours, triplicate platings, listed as 5% MSM): 4.5 × 10^3 cfu/ml and 4.0 × 10^3 cfu/ml and 4.2 × 10^3 cfu/ml | survival (cfu/ml) (12 μg/ml oxacillin + MSM (% in label), 48 hours, triplicate platings, listed as 6% MSM): 1.7 × 10^3 cfu/ml and 1.4 × 10^3 cfu/ml | survival (cfu/ml) (12 μg/ml oxacillin + MSM (% in label), 48 hours, triplicate platings, listed as 7% MSM): 9.0 × 10^3 cfu/ml and 8.9 × 10^3 cfu/ml and 8.5 × 10^3 cfu/ml | survival (cfu/ml) (12 μg/ml oxacillin + MSM (% in label), 48 hours, triplicate platings, listed as 8% MSM): 4.9 × 10^3 cfu/ml and 5.4 × 10^3 cfu/ml | survival (cfu/ml) (12 μg/ml oxacillin + MSM (% in label), 48 hours, triplicate platings, listed as 9% MSM): 2.4 × 10^3 cfu/ml and 2.5 × 10^3 cfu/ml and 2.3 × 10^3 cfu/ml | survival (cfu/ml) (12 μg/ml oxacillin + MSM (% in label), 48 hours, triplicate platings, listed as 10% MSM): 5.6 × 10^2 cfu/ml and 5.4 × 10^2 cfu/ml | survival (cfu/ml) (12 μg/ml oxacillin + MSM (% in label), 48 hours, triplicate platings, listed as 11% MSM): 6.4 × 10^2 cfu/ml and 5.8 × 10^2 cfu/ml and 6.5 × 10^2 cfu/ml | survival (cfu/ml) (12 μg/ml oxacillin + MSM (% in label), 48 hours, triplicate platings, listed as 12% MSM): 3.6 × 10^2 cfu/ml and 4.0 × 10^2 cfu/ml and 4.2 × 10^2 cfu/ml | survival (cfu/ml) (12 μg/ml oxacillin + MSM (% in label), 48 hours, triplicate platings, listed as 13% MSM): 6.8 × 10^2 cfu/ml and 5.8 × 10^2 cfu/ml | survival (cfu/ml) (12 μg/ml oxacillin + MSM (% in label), 48 hours, triplicate platings, listed as 14% MSM): 1.0 × 10^1 cfu/ml and 1.2 × 10^1 cfu/ml and 1.1 × 10^1 cfu/ml | survival (cfu/ml) (12 μg/ml oxacillin + MSM (% in label), 48 hours, triplicate platings, listed as 15% MSM): 5.0 × 10^3 cfu/ml and 4.5 × 10^3 cfu/ml and 4.6 × 10^3 cfu/ml | survival (cfu/ml) (12 μg/ml oxacillin + MSM (% in label), 48 hours, triplicate platings, listed as 16% MSM): 4.2 × 10^3 cfu/ml and 5.0 × 10^3 cfu/ml and 4.3 × 10^3 cfu/ml | survival, Average Log (12 μg/ml oxacillin + MSM (% in label), 72 hours, listed as 16% MSM): 2.1 Log | survival (cfu/ml) (12 μg/ml oxacillin + MSM (% in label), 72 hours, triplicate platings, listed as 5% MSM): >3.3 × 10^5 cfu/ml | survival (cfu/ml) (12 μg/ml oxacillin + MSM (% in label), 72 hours, triplicate platings, listed as 6% MSM): >3.3 × 10^5 cfu/ml | survival (cfu/ml) (12 μg/ml oxacillin + MSM (% in label), 72 hours, triplicate platings, listed as 7% MSM): >3.3 × 10^5 cfu/ml | survival (cfu/ml) (12 μg/ml oxacillin + MSM (% in label), 72 hours, triplicate platings, listed as 8% MSM): >3.3 × 10^5 cfu/ml | survival (cfu/ml) (12 μg/ml oxacillin + MSM (% in label), 72 hours, triplicate platings, listed as 9% MSM): 4.7 × 10^4 cfu/ml and 4.2 × 10^4 cfu/ml and 4.5 × 10^4 cfu/ml | survival (cfu/ml) (12 μg/ml oxacillin + MSM (% in label), 72 hours, triplicate platings, listed as 10% MSM): 1.2 × 10^4 cfu/ml and 1.1 × 10^4 cfu/ml and 1.0 × 10^4 cfu/ml | survival (cfu/ml) (12 μg/ml oxacillin + MSM (% in label), 72 hours, triplicate platings, listed as 11% MSM): 4.4 × 10^3 cfu/ml and 4.5 × 10^3 cfu/ml and 4.0 × 10^3 cfu/ml | survival (cfu/ml) (12 μg/ml oxacillin + MSM (% in label), 72 hours, triplicate platings, listed as 12% MSM): 1.5 × 10^3 cfu/ml and 1.1 × 10^3 cfu/ml and 1.3 × 10^3 cfu/ml | survival (cfu/ml) (12 μg/ml oxacillin + MSM (% in label), 72 hours, triplicate platings, listed as 13% MSM): 5.2 × 10^2 cfu/ml and 5.1 × 10^2 cfu/ml and 5.4 × 10^2 cfu/ml | survival (cfu/ml) (12 μg/ml oxacillin + MSM (% in label), 72 hours, triplicate platings, listed as 14% MSM): 1.1 × 10^2 cfu/ml and 1.2 × 10^2 cfu/ml | survival (cfu/ml) (12 μg/ml oxacillin + MSM (% in label), 72 hours, triplicate platings, listed as 15% MSM): 2.3 × 10^2 cfu/ml and 2.2 × 10^2 cfu/ml and 1.2 × 10^2 cfu/ml | survival (cfu/ml) (12 μg/ml oxacillin + MSM (% in label), 72 hours, triplicate platings, listed as 16% MSM): 1.1 × 10^2 cfu/ml and 1.2 × 10^2 cfu/ml and 1.6 × 10^2 cfu/ml | survival, Average Log (12 μg/ml oxacillin + MSM (% in label), 96 hours, listed as 5% MSM): 5.5 Log | survival, Average Log (12 μg/ml oxacillin + MSM (% in label), 96 hours, listed as 6% MSM): 5.5 Log | survival, Average Log (12 μg/ml oxacillin + MSM (% in label), 96 hours, listed as 7% MSM): 5.5 Log | survival, Average Log (12 μg/ml oxacillin + MSM (% in label), 96 hours, listed as 8% MSM): 5.5 Log | survival, Average Log (12 μg/ml oxacillin + MSM (% in label), 96 hours, listed as 9% MSM): 5.5 Log | survival, Average Log (12 μg/ml oxacillin + MSM (% in label), 96 hours, listed as 10% MSM): 5.5 Log | survival, Average Log (12 μg/ml oxacillin + MSM (% in label), 96 hours, listed as 11% MSM): 5.5 Log | survival, Average Log (12 μg/ml oxacillin + MSM (% in label), 96 hours, listed as 12% MSM): 3.8 Log | survival, Average Log (12 μg/ml oxacillin + MSM (% in label), 96 hours, listed as 13% MSM): 3.2 Log | survival, Average Log (12 μg/ml oxacillin + MSM (% in label), 96 hours, listed as 14% MSM): 1.8 Log | survival, Average Log (12 μg/ml oxacillin + MSM (% in label), 96 hours, listed as 15% MSM): 2.1 Log | survival, Average Log (12 μg/ml oxacillin + MSM (% in label), 96 hours, listed as 16% MSM): 2.2 Log | survival (cfu/ml) (12 μg/ml oxacillin + MSM (% in label), 96 hours, triplicate platings, listed as 5% MSM): >3.3 × 10^5 cfu/ml | survival (cfu/ml) (12 μg/ml oxacillin + MSM (% in label), 96 hours, triplicate platings, listed as 6% MSM): >3.3 × 10^5 cfu/ml | survival (cfu/ml) (12 μg/ml oxacillin + MSM (% in label), 96 hours, triplicate platings, listed as 7% MSM): >3.3 × 10^5 cfu/ml | survival (cfu/ml) (12 μg/ml oxacillin + MSM (% in label), 96 hours, triplicate platings, listed as 8% MSM): >3.3 × 10^5 cfu/ml | survival (cfu/ml) (12 μg/ml oxacillin + MSM (% in label), 96 hours, triplicate platings, listed as 9% MSM): >3.3 × 10^5 cfu/ml | survival (cfu/ml) (12 μg/ml oxacillin + MSM (% in label), 96 hours, triplicate platings, listed as 10% MSM): >3.3 × 10^5 cfu/ml | survival (cfu/ml) (12 μg/ml oxacillin + MSM (% in label), 96 hours, triplicate platings, listed as 11% MSM): >3.3 × 10^5 cfu/ml | survival (cfu/ml) (12 μg/ml oxacillin + MSM (% in label), 96 hours, triplicate platings, listed as 12% MSM): 6.8 × 10^3 cfu/ml and 7.0 × 10^3 cfu/ml | survival (cfu/ml) (12 μg/ml oxacillin + MSM (% in label), 96 hours, triplicate platings, listed as 13% MSM): 1.6 × 10^3 cfu/ml and 1.7 × 10^3 cfu/ml and 1.2 × 10^3 cfu/ml | survival (cfu/ml) (12 μg/ml oxacillin + MSM (% in label), 96 hours, triplicate platings, listed as 14% MSM): 6.0 × 10^1 cfu/ml and 5.0 × 10^1 cfu/ml | survival (cfu/ml) (12 μg/ml oxacillin + MSM (% in label), 96 hours, triplicate platings, listed as 15% MSM): 1.2 × 10^2 cfu/ml and 1.3 × 10^2 cfu/ml | survival (cfu/ml) (12 μg/ml oxacillin + MSM (% in label), 96 hours, triplicate platings, listed as 16% MSM): 1.4 × 10^2 cfu/ml and 1.6 × 10^2 cfu/ml | survival, Average Log (12 μg/ml oxacillin + MSM (% in label), 120 hours, listed as 5% MSM): 5.5 Log | survival, Average Log (12 μg/ml oxacillin + MSM (% in label), 120 hours, listed as 6% MSM): 5.5 Log | survival, Average Log (12 μg/ml oxacillin + MSM (% in label), 120 hours, listed as 7% MSM): 5.5 Log
